Percent effect of library compounds

Sequences of proteins named here, by UniProt entry; tags and fusion partners are left off. Residues count along the entry.
UniProt A4I591, 1-473: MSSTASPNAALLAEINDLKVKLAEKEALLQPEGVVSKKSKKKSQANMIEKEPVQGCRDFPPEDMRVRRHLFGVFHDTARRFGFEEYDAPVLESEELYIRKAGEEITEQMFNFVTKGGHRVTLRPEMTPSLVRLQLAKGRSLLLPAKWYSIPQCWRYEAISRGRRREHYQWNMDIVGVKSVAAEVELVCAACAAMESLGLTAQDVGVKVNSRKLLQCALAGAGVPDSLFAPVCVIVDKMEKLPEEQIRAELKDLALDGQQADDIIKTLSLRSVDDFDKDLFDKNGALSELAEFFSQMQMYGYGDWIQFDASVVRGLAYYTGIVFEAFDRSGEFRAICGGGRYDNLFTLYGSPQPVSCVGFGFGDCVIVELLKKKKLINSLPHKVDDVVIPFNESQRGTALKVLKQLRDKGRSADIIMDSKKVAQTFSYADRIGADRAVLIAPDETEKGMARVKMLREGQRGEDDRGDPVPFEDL
UniProt P9WPC5, whole entry: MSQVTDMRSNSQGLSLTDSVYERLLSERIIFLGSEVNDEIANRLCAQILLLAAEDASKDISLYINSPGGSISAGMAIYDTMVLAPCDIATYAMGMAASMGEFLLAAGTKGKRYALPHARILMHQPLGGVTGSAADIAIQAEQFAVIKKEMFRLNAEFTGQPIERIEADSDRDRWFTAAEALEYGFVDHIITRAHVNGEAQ
UniProt P9WPC3, whole entry partner: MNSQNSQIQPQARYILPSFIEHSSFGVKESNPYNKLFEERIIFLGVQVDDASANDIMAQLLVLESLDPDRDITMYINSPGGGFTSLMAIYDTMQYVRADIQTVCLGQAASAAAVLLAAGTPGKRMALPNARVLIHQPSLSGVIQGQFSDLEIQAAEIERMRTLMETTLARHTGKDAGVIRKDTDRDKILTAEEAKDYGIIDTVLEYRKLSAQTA
UniProt Q4DA54, 1-478: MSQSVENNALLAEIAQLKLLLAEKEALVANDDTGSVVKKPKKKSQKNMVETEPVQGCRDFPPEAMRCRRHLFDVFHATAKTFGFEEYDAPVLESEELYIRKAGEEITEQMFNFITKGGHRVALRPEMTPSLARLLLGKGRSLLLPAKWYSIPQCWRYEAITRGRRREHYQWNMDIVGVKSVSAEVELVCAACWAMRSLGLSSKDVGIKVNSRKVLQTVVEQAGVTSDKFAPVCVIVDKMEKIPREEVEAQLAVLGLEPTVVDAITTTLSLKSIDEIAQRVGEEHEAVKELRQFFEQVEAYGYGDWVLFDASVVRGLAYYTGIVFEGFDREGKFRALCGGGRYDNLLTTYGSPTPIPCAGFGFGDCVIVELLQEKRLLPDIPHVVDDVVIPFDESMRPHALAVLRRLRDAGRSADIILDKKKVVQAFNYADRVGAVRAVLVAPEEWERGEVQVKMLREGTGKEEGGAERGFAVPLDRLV

Toxoplasma: 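Assay of Toxoplasma gondii numbers, read through their beta-galactosidase reporter with a colour substrate. Concentration: 10 µM. The record gives no direction; the compounds picked for IC50 retests had high values, so higher reads as fewer parasites. Of about 67,000 compounds tested this way, about 260 (0.38%) reached 50% or more in at least one test.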
T. brucei: 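Whole-parasite assay of Trypanosoma brucei over 72 hours; the read-out is not stated. Concentration: 30 µM. The record gives no direction; compounds that gave an IC50 in retests scored well above the rest, so higher reads as stronger inhibition. Values scatter widely below zero; nearly all retest evidence comes from the higher of the two concentrations used. Size under these conditions: about 64,000 compounds, about 940 of them at 50% or above in at least one test.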
LiHisRS: 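Histidine-tRNA ligase, Leishmania infantum (UniProt A4I591). Enzyme assay of histidyl-tRNA synthetase; the read-out is not stated. Tested at 30 µM. The record gives no direction; compounds that gave an IC50 in retests scored well above the rest, so higher reads as stronger inhibition. The assay is labelled LdHisRS but filed under L. infantum. Size under these conditions: about 69,000 compounds, about 410 of them at 50% or above in at least one test.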
ClpP1P2: 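Protease assay of ClpP1P2, read by the AMC dye that it sets free. Target: ClpP1P2, Mycobacterium tuberculosis (UniProt P9WPC5 and UniProt P9WPC3). Tested at 50 µM. Direction is inferred from only a few compounds that gave an IC50; most scored high, so higher reads as stronger inhibition. Most other retested compounds had strongly negative values. Size under these conditions: about 69,000 compounds, about 10 of them at 50% or above in at least one test.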
TcHisRS: 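Histidine-tRNA ligase, Trypanosoma cruzi CL Brener (UniProt Q4DA54). Enzyme assay of histidyl-tRNA synthetase; the read-out is not stated. Compounds at 30 µM. Direction is inferred from retests: higher values go with stronger inhibition. About 69,000 compounds were tested under these conditions; 0.045% (about 31) showed 50% or more at least once.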

Values are the deposited “Percent Effect”, in %.
The record does not define 0% and 100%; most values in the screen are far below 50% and negative numbers occur (in some assays of this library far below -100).
The compounds are a random part of those screened.
A dash means the value is not listed here; it may have been measured.

| compound | Toxoplasma | T. brucei | LiHisRS | ClpP1P2 | TcHisRS |
|---|---|---|---|---|---|
| `[H][C@@]12C[C@@H](NC(=O)C(C)(C)C)[C@]1([H])CN(S(=O)(=O)c1ccc(C)cc1)C2` | 15.95 | 11.71 | - | - | - |
| `OCc1ccc(CNc2ccccc2CN2CCC(O)CC2)o1` | 5.887 | -41.79 | 20 | -1.066 | 6.494 |
| `Cc1nc2ccccc2nc1CN1CCn2nc(CCC(=O)O)cc2C1` | -2.514 | -40.99 | 31.2 | -8.861 | 4.523 |
| `O=C(Nc1ccc(-c2ccco2)cc1)C1CCCN(Cc2ccon2)C1` (centres unmarked) | 15.63 | -23.23 | 21.13 | -1.656 | 16.02 |
| `CCOCC(=O)NCCC(O)c1ccoc1` (centres unmarked) | 8.46 | -0.3482 | 12.99 | -5.006 | 3.636 |
| `CC(C)C[C@H](N)COc1cccc(F)c1Oc1ccccc1` | 10.97 | 100.2 | 12.86 | -22.8 | 14.18 |
| `CS(=O)(=O)NCc1ccc(NC(=O)CC2=CCCCC2)cc1` | 2.784 | -19.12 | 10.26 | -16.59 | 4.865 |
| `CS(=O)(=O)N1CC[C@H]2O[C@H](C(=O)NCCc3ccncc3)CC[C@H]21` | - | - | 5.66 | -2.181 | 5.946 |
| `CC(C)Cc1nnc(SCC(=O)O)n1-c1ccc(F)cc1F` | 2.19 | -59.7 | -65.62 | -6.537 | 0 |
| `C[C@@H]1C[C@H]2CN(S(=O)(=O)c3ccc(F)cc3)C[C@H]2O1` | - | - | 7.692 | -11.54 | 6.796 |
| `COC(=O)N1CCN(CCCc2nnnn2-c2ccccc2)CC1` | 10.9 | -41.32 | 17.24 | 1.484 | -1.571 |
| `O=C1Nc2ccccc2C12CCN(c1nccs1)CC2` | - | - | 21.15 | 3.537 | 11.65 |
| `CN1CCN(c2ccccc2NC(=O)NCC[S+](C)[O-])CC1` (centres unmarked) | 5.035 | 11.12 | 21.52 | -3.847 | 4.741 |
| `Cc1cnn(CC2CCCN2C(=O)c2ccc3[nH]nnc3c2)c1` (centres unmarked) | 6.355 | 8.608 | 18.92 | -7.064 | -0.3759 |
| `CC(NC(=O)COc1ccccc1I)C1CC1` (centres unmarked) | -12.59 | 17.22 | 24.66 | 0.2359 | 2.703 |
| `[H][C@@]12CN(Cc3ccc(C#N)cc3)C[C@]1([H])OCC(=O)N2CC(N)=O` | -2.553 | -1.865 | - | - | - |
| `[H][C@]12CC[C@]([H])(CN(C(=O)c3ccc(C(C)=O)s3)C1)N(Cc1ccccc1)C2` | -1.617 | -36.16 | - | - | - |
| `Cn1ccc(C(=O)N2CCCC(Cc3cccc4cccnc34)C2)n1` (centres unmarked) | 3.361 | -4.517 | -62.32 | -5.378 | 5.495 |
| `O=C1CCCC2(CCN(C(=O)c3cnccn3)CC2)N1` | 1.281 | -15.83 | 7.767 | -3.722 | 1.942 |
| `CS(=O)(=O)N1CCCCC12CCN(C(=O)c1ccccc1)C2` (centres unmarked) | 5.159 | -74.01 | 3.947 | -6.63 | 3.261 |
| `CCc1nc(C)c(C(=O)NCCNC(=O)Cc2cccc(F)c2)s1` | 10.24 | -15.75 | 3.636 | -3.017 | 3.509 |
| `Cc1cc(C)c(CNC(=O)N(C)Cc2nnc3n2CCC3)c(=O)[nH]1` | -5.247 | -91.29 | 13.7 | -1.869 | 7.937 |
| `O=C(C1CC1)N1Cc2[nH]nc(COCc3cccnc3)c2C1.O=C(O)C(F)(F)F.O=C(O)C(F)(F)F` | -2.65 | -50.32 | - | - | - |
| `Cc1ccsc1-c1nccn1CCS(=O)(=O)N1CCCC1` | 7.606 | -8.641 | 14.53 | -4.022 | 2.222 |
| `O=C(CS(=O)(=O)Cc1nnnn1C1CC1)NCC1CC1` | -3.369 | 4.436 | 13.16 | 12.26 | 5.172 |
| `O=C(NCC(O)c1cccc(F)c1)C1CCN(C2CCCCC2)CC1` (centres unmarked) | 13.2 | -49.13 | 0 | 0.04861 | 3.704 |
| `Cc1cccc(CN2CCC3(CCCN(CC(=O)N(C)C)C3)C2)n1` (centres unmarked) | - | - | 10 | 1.438 | 0 |
| `COCCc1ncc(CN2C[C@H](C3CC3)[C@@H](N)C2)cn1` | 1.393 | -4.04 | -2.632 | 0.5283 | 6.145 |
| `CC(C1CCN(Cc2ccc(N(C)C)nc2)CC1)N1CCOCC1` (centres unmarked) | 3.937 | -10.17 | 6.612 | -3.176 | 5.102 |
| `N#Cc1ccc(NC2CCN(Cc3ccccn3)CC2)c(F)c1` | 9.387 | 23.11 | 18.37 | -2.283 | -1.026 |
| `C[C@@H]1CN(Cc2ccoc2)C[C@]12CCN(CC(=O)N(C)C)C2=O` | - | - | 9.615 | 6.817 | 1.942 |
| `COc1ccc(C(=O)Nc2ccccc2C(C)C)c(OC)n1` | 18.85 | -38.1 | 3.96 | 1.149 | 2.273 |
| `[H][C@@]12COC[C@]1(COCc1cccnc1)CN(C(=O)c1ccc(C)nc1)C2` | -2.596 | -55.72 | - | - | - |
| `O=C(C1CC(F)(F)C1)N1C[C@@H]2CN(CC3CCCC3)CCO[C@@H]2C1` | - | - | 0 | -4.982 | -0.5587 |
| `Fc1cccc(C2CCCCN2Cc2nc(-c3cnccn3)no2)c1` (centres unmarked) | -0.4042 | 5.838 | 9.091 | -8.025 | 1.087 |
| `CC(C)CCN1CC2(CCN(C(=O)C3(C)CC3)CC2)OC1=O` | -57.25 | -15.15 | 15.05 | -11.24 | 8.642 |
| `O=C(O)C(F)(F)F.[H][C@@]12COC[C@@H](CC(=O)N3CCCC3)[C@]1([H])CN(Cc1ccc(F)cc1)C2` | 5.753 | -15.07 | - | - | - |
| `CCc1cc(N2CCC(Nc3ccc(Cl)cn3)CC2)ncn1` | 11.11 | 1.701 | 24.29 | 1.056 | 5.319 |
| `COCC(=O)NC(C)c1sc(-c2ccccc2F)nc1C` (centres unmarked) | -1.163 | 10.83 | 12.5 | -5.2 | 4.972 |
| `CCN1CC2(CC1=O)CN(C(=O)C(C)C)CCN(S(C)(=O)=O)C2` (centres unmarked) | 1.649 | -76.37 | -5.128 | -4.499 | 1.227 |
| `O=C(NC1(C(=O)O)CCCC1)C1Cc2cc(F)ccc2O1` (centres unmarked) | 2.06 | 0.6351 | 7.853 | -2.091 | 10.16 |
| `[H][C@@]12CCN(C(=O)CCOC)C[C@]1([H])OCCN(c1ccsc1)C2=O` | 0.2989 | -36.08 | - | - | - |
| `O=C(O)CC[C@@H]1CN(c2ncccc2F)CC[C@@H]1N1CCOCC1` | -4.204 | -31.77 | 2.083 | 5.732 | 5.063 |
| `O=C(c1cccnc1-n1cncn1)N1CCc2ccccc2C1` | -3.231 | 6.043 | 17.31 | -3.822 | -0.8333 |
| `Clc1cccc(CNc2cnn(CCN3CCCCC3)c2)c1` | 12.56 | -32.47 | 9.756 | 6.386 | 12.98 |
| `COCCn1c2c(ccc1=O)CCN(C(=O)CC1CC1)CC2` | 8.793 | -13.6 | 3.846 | -0.4546 | 3.911 |
| `CC(C)c1nccn1CCCNC(=O)c1ccc(N(C)C)nc1` | -3.414 | 44.04 | 16.5 | -8.476 | -2.075 |
| `CC(C)(O)CN1CCN(C(=O)COC2CCCC2)CC1` | -4.567 | -26.86 | 0 | -8.92 | 4.938 |
| `O=C1c2ccccc2C(=O)N1CC(O)Cn1nc(-c2cccs2)oc1=O` (centres unmarked) | 6.163 | -35.6 | -2.679 | 13.99 | 3.333 |
| `NC(=O)NC(=O)C(c1ccccc1)N1CCN(Cc2ccccc2)CC1` (centres unmarked) | 15.51 | - | 17.7 | 0.08667 | 0.8772 |
| `O=C1NC2(CCN(C(=O)Cc3ccsc3)CC2)CC1c1ccccc1` (centres unmarked) | 6.885 | -36.39 | 7.965 | 0.00369 | 5.376 |
| `CC(=O)N(C)CC(=O)Nc1ccc(C)cc1OCc1ccccc1` | -1.154 | -8.29 | 18.97 | 7.562 | 6.806 |
| `Cc1nn(C)c(C)c1NC(=O)CN1CCN(c2nccs2)C(C)C1` (centres unmarked) | 3.997 | -3.053 | 3.571 | -15.35 | -0.5814 |
| `Cc1nc2ccccc2c(=O)n1CCCC(=O)N1CCNC(=O)CC1` | -29.47 | 10.15 | 12.5 | -22.52 | 2.367 |

Once more, the final 6:

| compound | Toxoplasma | T. brucei | LiHisRS | ClpP1P2 | TcHisRS |
|---|---|---|---|---|---|
| `O=C1c2ccccc2C(=O)N1CC(O)Cn1nc(-c2cccs2)oc1=O` (centres unmarked) | 6.163 | -35.6 | -2.679 | 13.99 | 3.333 |
| `NC(=O)NC(=O)C(c1ccccc1)N1CCN(Cc2ccccc2)CC1` (centres unmarked) | 15.51 | - | 17.7 | 0.08667 | 0.8772 |
| `O=C1NC2(CCN(C(=O)Cc3ccsc3)CC2)CC1c1ccccc1` (centres unmarked) | 6.885 | -36.39 | 7.965 | 0.00369 | 5.376 |
| `CC(=O)N(C)CC(=O)Nc1ccc(C)cc1OCc1ccccc1` | -1.154 | -8.29 | 18.97 | 7.562 | 6.806 |
| `Cc1nn(C)c(C)c1NC(=O)CN1CCN(c2nccs2)C(C)C1` (centres unmarked) | 3.997 | -3.053 | 3.571 | -15.35 | -0.5814 |
| `Cc1nc2ccccc2c(=O)n1CCCC(=O)N1CCNC(=O)CC1` | -29.47 | 10.15 | 12.5 | -22.52 | 2.367 |

Data taken from ChEMBL document CHEMBL3988442, “University of Dundee, Small-Polar-MMV Screening Library” (2021).